Assay results taken from the supplement of paper PMC12067093, “Discovery and optimisation of a covalent ligand for TRIM25 and its application to targeted protein ubiquitination” (Chemical Science, 2025).
The other results are listed elsewhere or left out.

Sequences of proteins named here, by UniProt entry; tags and fusion partners are left off. A change or cut given only in a name is not applied to a line headed by its entry.
UniProt Q8TDN6: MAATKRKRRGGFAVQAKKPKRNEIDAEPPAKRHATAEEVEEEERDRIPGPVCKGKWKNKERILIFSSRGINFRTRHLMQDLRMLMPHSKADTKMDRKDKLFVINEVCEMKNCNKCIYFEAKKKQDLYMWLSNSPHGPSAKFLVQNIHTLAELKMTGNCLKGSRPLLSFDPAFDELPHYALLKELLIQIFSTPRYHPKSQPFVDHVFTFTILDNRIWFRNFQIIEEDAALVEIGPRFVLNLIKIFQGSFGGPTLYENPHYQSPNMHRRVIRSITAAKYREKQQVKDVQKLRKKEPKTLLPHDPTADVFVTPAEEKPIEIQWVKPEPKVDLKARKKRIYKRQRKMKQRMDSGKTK
UniProt Q9H7E9: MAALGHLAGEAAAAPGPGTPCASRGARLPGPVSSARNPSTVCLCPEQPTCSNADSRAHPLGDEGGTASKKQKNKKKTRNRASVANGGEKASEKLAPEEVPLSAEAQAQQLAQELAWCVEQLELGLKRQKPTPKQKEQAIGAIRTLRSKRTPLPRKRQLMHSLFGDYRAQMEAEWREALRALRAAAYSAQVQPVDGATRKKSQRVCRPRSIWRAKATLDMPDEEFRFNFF
UniProt Q6P1X6: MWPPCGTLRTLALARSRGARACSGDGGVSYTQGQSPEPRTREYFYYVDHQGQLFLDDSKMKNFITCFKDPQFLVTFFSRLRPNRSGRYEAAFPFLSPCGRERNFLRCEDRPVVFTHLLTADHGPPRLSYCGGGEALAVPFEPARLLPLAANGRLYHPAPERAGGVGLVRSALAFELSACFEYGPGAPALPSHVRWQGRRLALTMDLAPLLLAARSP
UniProt P27708: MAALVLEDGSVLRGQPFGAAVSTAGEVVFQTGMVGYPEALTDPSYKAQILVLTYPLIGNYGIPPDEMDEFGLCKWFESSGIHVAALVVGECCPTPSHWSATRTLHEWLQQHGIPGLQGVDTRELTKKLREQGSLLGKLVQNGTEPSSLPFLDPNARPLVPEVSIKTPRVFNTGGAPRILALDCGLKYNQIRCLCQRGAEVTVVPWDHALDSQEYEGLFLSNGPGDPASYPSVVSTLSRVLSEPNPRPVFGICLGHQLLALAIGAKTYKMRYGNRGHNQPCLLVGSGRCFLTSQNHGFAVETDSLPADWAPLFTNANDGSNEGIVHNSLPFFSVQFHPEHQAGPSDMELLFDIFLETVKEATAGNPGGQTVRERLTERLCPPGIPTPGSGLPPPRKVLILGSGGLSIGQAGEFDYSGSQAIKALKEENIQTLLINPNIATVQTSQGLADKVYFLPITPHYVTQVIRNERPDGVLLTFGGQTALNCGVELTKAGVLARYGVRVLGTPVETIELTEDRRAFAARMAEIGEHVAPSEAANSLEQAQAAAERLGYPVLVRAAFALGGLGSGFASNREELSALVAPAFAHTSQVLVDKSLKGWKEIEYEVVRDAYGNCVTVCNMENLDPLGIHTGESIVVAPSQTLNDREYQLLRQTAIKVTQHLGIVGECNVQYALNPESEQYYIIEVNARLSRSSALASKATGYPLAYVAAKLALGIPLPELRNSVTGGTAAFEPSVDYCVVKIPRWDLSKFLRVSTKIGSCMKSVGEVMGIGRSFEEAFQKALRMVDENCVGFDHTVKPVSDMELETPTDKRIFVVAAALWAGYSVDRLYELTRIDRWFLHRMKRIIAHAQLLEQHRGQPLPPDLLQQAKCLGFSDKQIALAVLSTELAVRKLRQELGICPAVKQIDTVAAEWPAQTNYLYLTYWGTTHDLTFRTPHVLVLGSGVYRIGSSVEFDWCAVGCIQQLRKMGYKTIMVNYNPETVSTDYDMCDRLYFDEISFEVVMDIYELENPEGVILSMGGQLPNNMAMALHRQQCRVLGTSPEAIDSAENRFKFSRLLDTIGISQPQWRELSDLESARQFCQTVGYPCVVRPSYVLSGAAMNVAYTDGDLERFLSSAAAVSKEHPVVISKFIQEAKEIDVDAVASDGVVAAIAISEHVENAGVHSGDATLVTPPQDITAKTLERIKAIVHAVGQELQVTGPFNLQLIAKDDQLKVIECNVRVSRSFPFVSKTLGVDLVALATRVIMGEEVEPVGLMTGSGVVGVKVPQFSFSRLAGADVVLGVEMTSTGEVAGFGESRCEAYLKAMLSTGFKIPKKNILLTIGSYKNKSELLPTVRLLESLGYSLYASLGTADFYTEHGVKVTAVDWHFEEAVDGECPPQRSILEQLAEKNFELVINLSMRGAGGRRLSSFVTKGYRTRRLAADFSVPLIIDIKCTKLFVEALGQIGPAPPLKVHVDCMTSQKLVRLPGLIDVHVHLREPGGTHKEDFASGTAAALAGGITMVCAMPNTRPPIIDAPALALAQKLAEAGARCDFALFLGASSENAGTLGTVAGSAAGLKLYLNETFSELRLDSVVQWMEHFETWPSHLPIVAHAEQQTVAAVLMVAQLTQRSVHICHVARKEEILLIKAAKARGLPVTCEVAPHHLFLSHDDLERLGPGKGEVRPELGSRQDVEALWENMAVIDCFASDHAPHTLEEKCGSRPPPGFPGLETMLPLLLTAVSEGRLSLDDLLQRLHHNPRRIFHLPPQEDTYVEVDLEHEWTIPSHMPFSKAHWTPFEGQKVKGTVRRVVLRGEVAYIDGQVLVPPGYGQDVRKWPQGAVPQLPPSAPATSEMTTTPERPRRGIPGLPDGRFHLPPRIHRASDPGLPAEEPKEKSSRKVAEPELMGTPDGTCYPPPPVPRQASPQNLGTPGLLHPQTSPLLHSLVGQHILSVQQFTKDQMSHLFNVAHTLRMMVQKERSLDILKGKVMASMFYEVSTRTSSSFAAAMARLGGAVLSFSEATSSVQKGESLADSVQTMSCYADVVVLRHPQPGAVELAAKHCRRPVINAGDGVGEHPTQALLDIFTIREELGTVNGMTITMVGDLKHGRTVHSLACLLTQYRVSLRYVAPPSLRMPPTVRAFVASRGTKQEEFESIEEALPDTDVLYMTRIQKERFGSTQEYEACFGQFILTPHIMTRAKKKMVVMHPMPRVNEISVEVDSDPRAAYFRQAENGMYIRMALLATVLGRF
UniProt P01024, whole entry, looked up: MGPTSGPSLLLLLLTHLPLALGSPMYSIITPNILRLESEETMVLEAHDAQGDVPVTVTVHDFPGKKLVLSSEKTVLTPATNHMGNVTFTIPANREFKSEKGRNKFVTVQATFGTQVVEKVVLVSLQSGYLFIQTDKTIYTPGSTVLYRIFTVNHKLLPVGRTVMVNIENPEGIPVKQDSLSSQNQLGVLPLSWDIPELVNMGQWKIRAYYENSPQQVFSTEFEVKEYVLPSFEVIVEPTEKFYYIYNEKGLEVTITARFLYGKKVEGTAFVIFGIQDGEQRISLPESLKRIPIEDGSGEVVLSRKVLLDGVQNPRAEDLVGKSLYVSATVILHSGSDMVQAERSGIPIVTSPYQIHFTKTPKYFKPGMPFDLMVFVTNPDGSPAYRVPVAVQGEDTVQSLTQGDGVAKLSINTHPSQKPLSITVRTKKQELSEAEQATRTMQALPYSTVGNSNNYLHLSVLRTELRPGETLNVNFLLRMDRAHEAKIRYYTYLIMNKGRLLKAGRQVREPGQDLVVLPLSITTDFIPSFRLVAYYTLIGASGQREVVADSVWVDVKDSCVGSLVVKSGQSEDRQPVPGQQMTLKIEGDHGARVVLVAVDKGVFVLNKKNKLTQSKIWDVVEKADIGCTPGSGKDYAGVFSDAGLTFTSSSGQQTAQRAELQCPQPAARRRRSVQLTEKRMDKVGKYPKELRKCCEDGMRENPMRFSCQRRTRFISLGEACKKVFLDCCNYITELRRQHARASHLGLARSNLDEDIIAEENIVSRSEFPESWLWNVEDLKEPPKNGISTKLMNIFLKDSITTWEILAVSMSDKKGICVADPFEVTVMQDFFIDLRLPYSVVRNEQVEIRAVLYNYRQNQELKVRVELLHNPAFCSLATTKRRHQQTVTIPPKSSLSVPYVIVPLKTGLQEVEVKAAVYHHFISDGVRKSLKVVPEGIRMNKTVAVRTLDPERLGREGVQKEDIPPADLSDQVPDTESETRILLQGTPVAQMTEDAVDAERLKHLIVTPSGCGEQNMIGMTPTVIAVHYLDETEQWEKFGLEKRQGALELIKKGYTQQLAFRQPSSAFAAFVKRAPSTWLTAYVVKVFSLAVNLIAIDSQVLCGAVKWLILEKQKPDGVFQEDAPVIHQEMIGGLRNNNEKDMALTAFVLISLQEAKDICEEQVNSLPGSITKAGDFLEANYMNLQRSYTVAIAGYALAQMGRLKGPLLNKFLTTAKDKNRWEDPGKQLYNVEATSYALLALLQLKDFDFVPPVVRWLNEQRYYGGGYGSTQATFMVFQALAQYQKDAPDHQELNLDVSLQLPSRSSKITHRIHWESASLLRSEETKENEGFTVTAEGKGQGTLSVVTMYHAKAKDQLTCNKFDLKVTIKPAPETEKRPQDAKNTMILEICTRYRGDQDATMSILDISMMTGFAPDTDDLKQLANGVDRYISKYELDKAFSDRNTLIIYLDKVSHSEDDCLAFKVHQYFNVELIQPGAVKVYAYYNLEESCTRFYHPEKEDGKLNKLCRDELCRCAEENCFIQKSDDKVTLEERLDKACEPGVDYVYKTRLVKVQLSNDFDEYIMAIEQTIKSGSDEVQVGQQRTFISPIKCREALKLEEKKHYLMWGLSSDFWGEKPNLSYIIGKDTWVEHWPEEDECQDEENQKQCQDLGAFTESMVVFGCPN
UniProt O14981: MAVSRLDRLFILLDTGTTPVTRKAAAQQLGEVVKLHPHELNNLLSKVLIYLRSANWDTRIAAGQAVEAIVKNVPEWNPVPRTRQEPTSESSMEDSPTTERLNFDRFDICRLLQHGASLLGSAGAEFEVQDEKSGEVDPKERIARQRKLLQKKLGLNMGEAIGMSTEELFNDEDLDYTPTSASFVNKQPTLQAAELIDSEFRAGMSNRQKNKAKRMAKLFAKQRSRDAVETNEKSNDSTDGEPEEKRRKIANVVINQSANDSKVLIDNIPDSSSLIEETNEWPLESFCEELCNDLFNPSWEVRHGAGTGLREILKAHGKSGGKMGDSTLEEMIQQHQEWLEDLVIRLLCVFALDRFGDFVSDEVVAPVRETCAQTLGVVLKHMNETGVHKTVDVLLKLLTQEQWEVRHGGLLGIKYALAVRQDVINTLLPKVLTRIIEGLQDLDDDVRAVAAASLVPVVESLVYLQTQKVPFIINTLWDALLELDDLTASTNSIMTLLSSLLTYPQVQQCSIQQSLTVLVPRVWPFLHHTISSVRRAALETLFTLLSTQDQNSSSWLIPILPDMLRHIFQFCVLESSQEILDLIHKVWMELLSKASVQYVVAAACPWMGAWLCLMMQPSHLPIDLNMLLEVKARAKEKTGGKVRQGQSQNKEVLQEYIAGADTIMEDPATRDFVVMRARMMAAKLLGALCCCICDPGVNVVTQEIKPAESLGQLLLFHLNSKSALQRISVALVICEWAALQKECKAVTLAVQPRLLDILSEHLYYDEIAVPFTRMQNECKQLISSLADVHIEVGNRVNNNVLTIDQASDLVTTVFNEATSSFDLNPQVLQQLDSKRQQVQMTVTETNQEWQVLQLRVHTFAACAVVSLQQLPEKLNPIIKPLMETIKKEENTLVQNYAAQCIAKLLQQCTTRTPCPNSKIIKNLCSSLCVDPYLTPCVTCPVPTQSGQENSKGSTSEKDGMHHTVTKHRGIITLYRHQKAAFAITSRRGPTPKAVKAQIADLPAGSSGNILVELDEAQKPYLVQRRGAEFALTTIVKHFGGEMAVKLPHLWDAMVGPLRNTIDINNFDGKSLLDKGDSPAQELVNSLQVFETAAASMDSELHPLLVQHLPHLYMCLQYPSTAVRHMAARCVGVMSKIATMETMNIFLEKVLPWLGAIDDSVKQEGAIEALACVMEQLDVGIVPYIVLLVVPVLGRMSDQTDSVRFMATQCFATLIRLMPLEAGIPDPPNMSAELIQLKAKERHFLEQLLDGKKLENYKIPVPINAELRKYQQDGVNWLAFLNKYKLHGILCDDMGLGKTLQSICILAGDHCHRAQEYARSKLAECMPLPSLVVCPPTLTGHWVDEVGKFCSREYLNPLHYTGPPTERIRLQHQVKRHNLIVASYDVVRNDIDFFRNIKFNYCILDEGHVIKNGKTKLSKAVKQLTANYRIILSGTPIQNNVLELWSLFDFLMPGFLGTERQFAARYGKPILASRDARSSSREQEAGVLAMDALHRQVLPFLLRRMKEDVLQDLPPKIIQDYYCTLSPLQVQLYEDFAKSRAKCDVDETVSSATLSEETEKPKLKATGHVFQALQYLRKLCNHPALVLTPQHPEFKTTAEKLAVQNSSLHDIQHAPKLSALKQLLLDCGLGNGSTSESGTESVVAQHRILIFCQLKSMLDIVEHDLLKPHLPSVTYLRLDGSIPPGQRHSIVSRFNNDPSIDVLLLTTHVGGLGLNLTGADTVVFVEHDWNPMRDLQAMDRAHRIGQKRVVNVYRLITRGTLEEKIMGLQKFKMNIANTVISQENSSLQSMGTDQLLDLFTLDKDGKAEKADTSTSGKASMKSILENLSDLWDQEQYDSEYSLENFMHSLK

Compound: Cc1cc(ccc1-c1ccccc1)C(=O)N1CCCN(CC1)C(=O)CCl [compound 10]
Assay: probe-labelled cysteine peptide fold change vs DMSO (competition) (log2 fold change); higher = less target engagement (more negative = stronger competition)
Conditions: THP-1, incubation time: 4 h
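Also: competitive profiling in live THP-1 cells: cysteine peptides tagged with an iodoacetamide desthiobiotin (IA-DTB) probe, intensity after compound treatment relative to DMSO-treated cells.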

Target | probe-labelled cysteine peptide fold change (10 µM) | probe-labelled cysteine peptide fold change (50 µM)
BRD9_Q9H8M2_101_EHCDTEGEADDFDPGK (UniProt Q9H8M2) | -0.0619 | -0.179
BTK_Q06187_633_VYTIMYSCWHEK (UniProt Q06187) | -0.0117 | -0.0407
CAMK2D_Q13557_290_QETVDCLK (UniProt Q13557) | -0.354 | 0.397
C1GALT1_Q9NS00_232_CTHSSSIEDLALGR (UniProt Q9NS00) | 0.236 | -0.139
BRD4_O60885_429_LMFSNCYK (UniProt O60885) | 0.0685 | 0.0127
BRIX1_Q8TDN6_52_HATAEEVEEEERDRIPGPVCK (UniProt Q8TDN6) | -0.222 | -0.542
C8orf33_Q9H7E9_21_AALGHLAGEAAAAPGPGTPCASR (UniProt Q9H7E9) | -0.0887 | 0.113
C8orf82_Q6P1X6_98_YEAAFPFLSPCGR (UniProt Q6P1X6) | -0.0795 | -0.343
BUB3_O43684_129_TPCNAGTFSQPEK (UniProt O43684) | -0.13 | 0.153
CAD_P27708_379_LCPPGIPTPGSGLPPPR (UniProt P27708) | 0.107 | 0.247
C3_P01024_662_AELQCPQPAAR (UniProt P01024) | -0.319 | -1.02
C20orf27_Q9GZN8_106_CEYSAHK (UniProt Q9GZN8) | 0.129 | -0.0108
BTAF1_O14981_1290_LHGILCDDMGLGK (UniProt O14981) | -0.0956 | -0.174
CAND2_O75155_358_CIAALISSRPDLLPDFHCTLAPVLIR (UniProt O75155) | 0.229 | -0.0975

Single entries from the results shown.
C3_P01024_662_AELQCPQPAAR (UniProt P01024) | probe-labelled cysteine peptide fold change (10 µM): -0.319
CAD_P27708_379_LCPPGIPTPGSGLPPPR (UniProt P27708) | probe-labelled cysteine peptide fold change (50 µM): 0.247
